# Assay results from the supplement of paper PMC8728848.
# The list shows a part of the results.
# B1: MLTim-4 (Mus musculus), Q6U7R4 (protein)
# chain: MSKGLLLLWLVTELWWLYLTPAASEDTIIGFLGQPVTLPCHYLSWSQSRNSMCWGKGSCPNSKCNAELLRTDGTRIISRKSTKYTLLGKVQFGEVSLTISNTNRGDSGVYCCRIEVPGWFNDVKKNVRLELRRAT
# Columns and labels:
# Assay in all cases: glycan array binding signal (z-score within array); higher = stronger binding
# Conditions in all cases: glycan notation: IUPAC condensed, linker removed
# [1] = biological target: Neu5Ac(a2-3)Gal(b1-3)[Neu5Ac(a2-6)]GalNAc
# In short: (§1)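 Arrays were curated from the Consortium for Functional Glycomics database, 3228 in total, and kept only where the protein sequence was available. Binding is expressed as a within-array Z-score. This score was averaged across arrays of the same protein sequence at different concentrations or buffers and across linkers, and negative values can be read as non-binding.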
# [2] = biological target: Neu5Ac(a2-3)Gal(b1-4)Glc
# In short: as §1
# [3] = biological target: Neu5Ac(a2-3)Gal(b1-4)GlcNAc
# In short: as §1
# [4] = biological target: Neu5Ac(a2-3)Gal(b1-4)GlcNAc(b1-3)Gal(b1-3)GlcNAc
# In short: as §1
# [5] = biological target: Neu5Ac(a2-3)Gal(b1-4)GlcNAc(b1-3)Gal(b1-4)GlcNAc
# In short: as §1
# [6] = biological target: Neu5Ac(a2-3)Gal(b1-4)GlcNAc(b1-3)Gal(b1-4)GlcNAc(b1-3)Gal(b1-4)GlcNAc
# In short: as §1
# [7] = biological target: Neu5Ac(a2-3)Gal(b1-4)GlcNAc(b1-3)Gal(b1-4)[Fuc(a1-3)]GlcNAc
# In short: as §1
# [8] = biological target: Neu5Ac(a2-3)Gal(b1-4)GlcNAc(b1-6)[Gal(b1-3)]GalNAc
# In short: as §1
# [9] = biological target: Neu5Ac(a2-3)Gal(b1-4)GlcNAc6S
# In short: as §1
# [10] = biological target: Neu5Ac(a2-3)Gal(b1-4)[Fuc(a1-3)]GlcNAc
# In short: as §1
# [11] = biological target: Neu5Ac(a2-3)Gal(b1-4)[Fuc(a1-3)]GlcNAc(b1-3)Gal
# In short: as §1
# [12] = biological target: Neu5Ac(a2-3)Gal(b1-4)[Fuc(a1-3)]GlcNAc(b1-3)Gal(b1-4)GlcNAc
# In short: as §1
# [13] = biological target: Neu5Ac(a2-3)Gal(b1-4)[Fuc(a1-3)]GlcNAc(b1-3)Gal(b1-4)[Fuc(a1-3)]GlcNAc(b1-3)Gal(b1-4)[Fuc(a1-3)]GlcNAc
# In short: as §1
# [14] = biological target: Neu5Ac(a2-3)Gal(b1-4)[Fuc(a1-3)]GlcNAc6S
# In short: as §1
# [15] = biological target: Neu5Ac(a2-3)Gal6S(b1-4)GlcNAc
# In short: as §1
# [16] = biological target: Neu5Ac(a2-3)Gal6S(b1-4)[Fuc(a1-3)]GlcNAc
# In short: as §1
# [17] = biological target: Neu5Ac(a2-3)GalNAc
# In short: as §1
# [18] = biological target: Neu5Ac(a2-3)GalNAc(b1-4)GlcNAc
# In short: as §1
# [19] = biological target: Neu5Ac(a2-3)[GalNAc(b1-4)]Gal(b1-4)Glc
# In short: as §1
# [20] = biological target: Neu5Ac(a2-3)[GalNAc(b1-4)]Gal(b1-4)GlcNAc
# In short: as §1
# [21] = biological target: Neu5Ac(a2-3)[Neu5Ac(a2-6)]GalNAc
# In short: as §1
# [22] = biological target: Neu5Ac(a2-6)Gal(b1-4)GlcNAc
# In short: as §1
# [23] = biological target: Neu5Ac(a2-6)Gal(b1-4)GlcNAc(b1-2)Man(a1-3)[Neu5Ac(a2-6)Gal(b1-4)GlcNAc(b1-2)Man(a1-6)]Man(b1-4)GlcNAc(b1-4)GlcNAc
# In short: as §1
# [24] = biological target: Neu5Ac(a2-6)Gal(b1-4)GlcNAc(b1-3)Gal(b1-4)GlcNAc
# In short: as §1
# [25] = biological target: Neu5Ac(a2-6)Gal(b1-4)GlcNAc(b1-3)Gal(b1-4)[Fuc(a1-3)]GlcNAc(b1-3)Gal(b1-4)[Fuc(a1-3)]GlcNAc
# In short: as §1
# [26] = biological target: Neu5Ac(a2-6)Gal(b1-4)GlcNAc6S
# In short: as §1
# [27] = biological target: Neu5Ac(a2-6)GalNAc
# In short: as §1
# [28] = biological target: Neu5Ac(a2-6)GalNAc(b1-4)GlcNAc
# In short: as §1
# [29] = biological target: Neu5Ac(a2-8)Neu5Ac
# In short: as §1
# [30] = biological target: Neu5Ac(a2-8)Neu5Ac(a2-3)Gal(b1-4)Glc
# In short: as §1
# [31] = biological target: Neu5Ac(a2-8)Neu5Ac(a2-3)[GalNAc(b1-4)]Gal(b1-4)Glc
# In short: as §1
# [32] = biological target: Neu5Ac(a2-8)Neu5Ac(a2-8)Neu5Ac
# In short: as §1
# [33] = biological target: Neu5Ac(a2-8)Neu5Ac(a2-8)Neu5Ac(a2-3)Gal(b1-4)Glc
# In short: as §1
# [34] = biological target: Neu5Ac(a2-8)Neu5Ac(a2-8)Neu5Ac(a2-3)[GalNAc(b1-4)]Gal(b1-4)Glc
# In short: as §1
# [35] = biological target: Neu5Ac(a2-8)Neu5Ac(a2-8)Neu5Ac(a2-8)Neu5Ac(a2-3)[GalNAc(b1-4)]Gal(b1-4)Glc
# In short: as §1
# [36] = biological target: Neu5Ac9Ac(a2-6)Gal(b1-4)GlcNAc
# In short: as §1
# [37] = biological target: Neu5Gc(a2-3)Gal(b1-3)GlcNAc
# In short: as §1
# [38] = biological target: Neu5Gc(a2-3)Gal(b1-3)[Fuc(a1-4)]GlcNAc
# In short: as §1
# [39] = biological target: Neu5Gc(a2-3)Gal(b1-4)Glc
# In short: as §1
# [40] = biological target: Neu5Gc(a2-3)Gal(b1-4)GlcNAc
# In short: as §1
# [41] = biological target: Neu5Gc(a2-3)Gal(b1-4)[Fuc(a1-4)]GlcNAc
# In short: as §1
# [42] = biological target: Neu5Gc(a2-6)Gal(b1-4)GlcNAc
# In short: as §1
# [43] = biological target: Neu5Gc(a2-6)GalNAc
# In short: as §1
binder,measurement,setting,value
B1,glycan array binding signal (z-score),[1],-0.808
same,glycan array binding signal (z-score),[2],-0.295
same,glycan array binding signal (z-score),[3],-0.36
same,glycan array binding signal (z-score),[4],-0.655
same,glycan array binding signal (z-score),[5],-0.088
same,glycan array binding signal (z-score),[6],-1.1
same,glycan array binding signal (z-score),[7],-0.514
same,glycan array binding signal (z-score),[8],-0.353
same,glycan array binding signal (z-score),[9],0.304
same,glycan array binding signal (z-score),[10],-0.788
same,glycan array binding signal (z-score),[11],-0.664
same,glycan array binding signal (z-score),[12],0.794
same,glycan array binding signal (z-score),[13],-0.204
same,glycan array binding signal (z-score),[14],-1.09
same,glycan array binding signal (z-score),[15],-0.852
same,glycan array binding signal (z-score),[16],-0.672
same,glycan array binding signal (z-score),[17],0.559
same,glycan array binding signal (z-score),[18],-0.995
same,glycan array binding signal (z-score),[19],-1
same,glycan array binding signal (z-score),[20],-0.766
same,glycan array binding signal (z-score),[21],-0.214
same,glycan array binding signal (z-score),[22],-0.378
same,glycan array binding signal (z-score),[23],-0.9
same,glycan array binding signal (z-score),[24],-1.16
same,glycan array binding signal (z-score),[25],-0.767
same,glycan array binding signal (z-score),[26],-0.485
same,glycan array binding signal (z-score),[27],-0.246
same,glycan array binding signal (z-score),[28],-0.425
same,glycan array binding signal (z-score),[29],0.032
same,glycan array binding signal (z-score),[30],-0.77
same,glycan array binding signal (z-score),[31],-0.484
same,glycan array binding signal (z-score),[32],-0.988
same,glycan array binding signal (z-score),[33],-0.679
same,glycan array binding signal (z-score),[34],-0.741
same,glycan array binding signal (z-score),[35],-0.763
same,glycan array binding signal (z-score),[36],-0.361
same,glycan array binding signal (z-score),[37],-0.343
same,glycan array binding signal (z-score),[38],0.211
same,glycan array binding signal (z-score),[39],0.349
same,glycan array binding signal (z-score),[40],-0.396
same,glycan array binding signal (z-score),[41],1.3
same,glycan array binding signal (z-score),[42],0.102
same,glycan array binding signal (z-score),[43],-0.077

# Some of the entries so far, with tabs.
binder	measurement	setting	value
B1	glycan array binding signal (z-score)	[24]	-1.16
same	glycan array binding signal (z-score)	[25]	-0.767
same	glycan array binding signal (z-score)	[26]	-0.485
